Test results as given in PMC8052847.
Results are given in words; binding and its absence hold for the method and conditions named. In cells and extracts the contact can be indirect. Some entries that bind do so weakly or less than the wild type.

Protein sequences, listed by entry. Tags and fused reporters are not part of them.
UniProt Q9UBN7: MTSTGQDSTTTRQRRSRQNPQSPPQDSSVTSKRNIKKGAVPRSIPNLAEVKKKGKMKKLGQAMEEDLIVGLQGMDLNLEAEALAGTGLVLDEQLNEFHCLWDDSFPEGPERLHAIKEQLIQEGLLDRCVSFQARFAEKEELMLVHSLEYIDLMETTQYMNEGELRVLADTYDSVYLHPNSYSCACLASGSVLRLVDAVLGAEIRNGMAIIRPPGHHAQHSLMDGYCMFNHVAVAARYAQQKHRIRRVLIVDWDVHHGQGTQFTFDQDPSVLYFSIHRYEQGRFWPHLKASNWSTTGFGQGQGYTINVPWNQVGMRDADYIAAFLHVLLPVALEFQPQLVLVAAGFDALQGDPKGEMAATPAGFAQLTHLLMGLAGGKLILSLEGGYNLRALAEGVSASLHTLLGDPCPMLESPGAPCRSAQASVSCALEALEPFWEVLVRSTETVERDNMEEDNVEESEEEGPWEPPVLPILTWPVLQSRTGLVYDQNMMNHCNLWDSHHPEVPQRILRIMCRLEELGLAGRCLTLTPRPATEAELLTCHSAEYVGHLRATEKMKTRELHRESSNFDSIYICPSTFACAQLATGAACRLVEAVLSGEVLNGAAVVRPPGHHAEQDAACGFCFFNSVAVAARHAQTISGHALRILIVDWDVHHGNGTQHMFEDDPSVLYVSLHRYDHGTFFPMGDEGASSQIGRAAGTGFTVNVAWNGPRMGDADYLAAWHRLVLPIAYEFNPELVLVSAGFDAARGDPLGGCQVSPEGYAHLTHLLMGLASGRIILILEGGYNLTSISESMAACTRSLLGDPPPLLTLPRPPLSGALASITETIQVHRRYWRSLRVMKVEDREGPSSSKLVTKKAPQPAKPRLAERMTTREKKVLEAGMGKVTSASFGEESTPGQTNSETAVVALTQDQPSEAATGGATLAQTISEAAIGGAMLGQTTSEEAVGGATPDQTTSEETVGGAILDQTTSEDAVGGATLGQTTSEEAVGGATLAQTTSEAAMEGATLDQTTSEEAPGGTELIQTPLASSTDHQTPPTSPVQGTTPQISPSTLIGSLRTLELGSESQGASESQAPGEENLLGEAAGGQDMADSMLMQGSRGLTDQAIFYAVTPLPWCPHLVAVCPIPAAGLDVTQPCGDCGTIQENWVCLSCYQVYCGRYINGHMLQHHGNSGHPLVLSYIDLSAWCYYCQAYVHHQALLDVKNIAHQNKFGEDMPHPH
UniProt P26599: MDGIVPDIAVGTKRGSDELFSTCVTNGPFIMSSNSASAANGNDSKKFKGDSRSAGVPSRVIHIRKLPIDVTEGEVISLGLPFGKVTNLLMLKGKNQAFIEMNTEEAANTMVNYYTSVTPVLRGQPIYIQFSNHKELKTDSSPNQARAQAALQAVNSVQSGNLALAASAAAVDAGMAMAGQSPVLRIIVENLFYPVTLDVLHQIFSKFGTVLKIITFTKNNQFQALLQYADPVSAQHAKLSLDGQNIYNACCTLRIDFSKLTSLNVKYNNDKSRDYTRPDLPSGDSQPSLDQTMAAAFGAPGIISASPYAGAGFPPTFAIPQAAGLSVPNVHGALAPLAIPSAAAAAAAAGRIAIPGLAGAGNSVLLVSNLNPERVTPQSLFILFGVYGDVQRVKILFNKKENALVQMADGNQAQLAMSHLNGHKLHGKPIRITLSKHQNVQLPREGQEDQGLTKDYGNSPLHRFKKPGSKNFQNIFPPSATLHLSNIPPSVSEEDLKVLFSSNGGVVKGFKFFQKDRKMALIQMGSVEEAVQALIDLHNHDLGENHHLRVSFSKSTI

How the values were obtained:
[1] = target: HDAC6 (histone deacetylase 6) (human (endogenous in MCF7)) (UniProt Q9UBN7); experiment: co-IP; sequential co-IP: 1 mg MCF7 nuclear extract precipitated first with 3 ug anti-SMAR1, eluate precipitated again with 2 ug anti-HDAC6, final eluate probed with anti-PTBP1
[2] = target: T1, SMAR1 (scaffold/matrix attachment region-binding protein 1) (human (endogenous in MCF7)) (UniProt Q8N9N5); experiment: as above
T1 sequence: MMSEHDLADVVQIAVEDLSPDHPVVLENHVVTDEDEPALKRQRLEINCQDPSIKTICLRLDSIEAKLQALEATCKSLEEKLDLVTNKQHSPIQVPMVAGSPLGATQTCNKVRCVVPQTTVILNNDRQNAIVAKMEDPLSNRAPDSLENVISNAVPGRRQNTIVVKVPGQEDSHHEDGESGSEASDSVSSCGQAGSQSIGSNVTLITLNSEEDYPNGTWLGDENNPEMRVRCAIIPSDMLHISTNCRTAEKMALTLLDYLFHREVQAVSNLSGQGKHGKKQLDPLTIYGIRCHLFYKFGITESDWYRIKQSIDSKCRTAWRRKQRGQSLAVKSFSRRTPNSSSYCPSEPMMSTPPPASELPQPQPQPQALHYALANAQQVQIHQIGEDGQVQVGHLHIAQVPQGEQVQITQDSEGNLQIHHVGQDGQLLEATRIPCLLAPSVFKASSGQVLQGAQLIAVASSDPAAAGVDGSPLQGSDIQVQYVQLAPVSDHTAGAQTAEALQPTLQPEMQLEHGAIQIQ

[3] = target: HDAC6 (histone deacetylase 6) (human (endogenous in MCF7)) (UniProt Q9UBN7); experiment: co-IP; 500 ug MCF7 nuclear extract, pre-cleared with normal IgG Dynabeads G, 12 h at 4 C with antibody cross-linked (DMP) to Dynabeads G; washed in IP buffer (1x PBS, 0.1% NP-40); eluates blotted
[4] = target: T1, SMAR1 (scaffold/matrix attachment region-binding protein 1) (human (endogenous in MCF7)); experiment: as above
[5] = target: PTBP1 (polypyrimidine tract-binding protein 1) (human (endogenous in MCF7)) (UniProt P26599); experiment: as above

Measured: binding

PTBP1 (polypyrimidine tract-binding protein 1) (from UniProt P26599 1-557)
not listed: [5]
binds: all other assays above

HDAC6 (histone deacetylase 6) (from UniProt Q9UBN7 1-1215) (enzyme)
binds: [2] | [5] | [4]

B1: SMAR1 (scaffold/matrix attachment region-binding protein 1) (protein, UniProt Q8N9N5 1-519)
chain: MMSEHDLADVVQIAVEDLSPDHPVVLENHVVTDEDEPALKRQRLEINCQDPSIKTICLRLDSIEAKLQALEATCKSLEEKLDLVTNKQHSPIQVPMVAGSPLGATQTCNKVRCVVPQTTVILNNDRQNAIVAKMEDPLSNRAPDSLENVISNAVPGRRQNTIVVKVPGQEDSHHEDGESGSEASDSVSSCGQAGSQSIGSNVTLITLNSEEDYPNGTWLGDENNPEMRVRCAIIPSDMLHISTNCRTAEKMALTLLDYLFHREVQAVSNLSGQGKHGKKQLDPLTIYGIRCHLFYKFGITESDWYRIKQSIDSKCRTAWRRKQRGQSLAVKSFSRRTPNSSSYCPSEPMMSTPPPASELPQPQPQPQALHYALANAQQVQIHQIGEDGQVQVGHLHIAQVPQGEQVQITQDSEGNLQIHHVGQDGQLLEATRIPCLLAPSVFKASSGQVLQGAQLIAVASSDPAAAGVDGSPLQGSDIQVQYVQLAPVSDHTAGAQTAEALQPTLQPEMQLEHGAIQIQ
binds: [3] | [5]
